This passage reports binding results from paper doi:10.1101/262154.

Sequences of proteins named here, by UniProt entry; tags and fusion partners are left off.
UniProt Q9VDD3: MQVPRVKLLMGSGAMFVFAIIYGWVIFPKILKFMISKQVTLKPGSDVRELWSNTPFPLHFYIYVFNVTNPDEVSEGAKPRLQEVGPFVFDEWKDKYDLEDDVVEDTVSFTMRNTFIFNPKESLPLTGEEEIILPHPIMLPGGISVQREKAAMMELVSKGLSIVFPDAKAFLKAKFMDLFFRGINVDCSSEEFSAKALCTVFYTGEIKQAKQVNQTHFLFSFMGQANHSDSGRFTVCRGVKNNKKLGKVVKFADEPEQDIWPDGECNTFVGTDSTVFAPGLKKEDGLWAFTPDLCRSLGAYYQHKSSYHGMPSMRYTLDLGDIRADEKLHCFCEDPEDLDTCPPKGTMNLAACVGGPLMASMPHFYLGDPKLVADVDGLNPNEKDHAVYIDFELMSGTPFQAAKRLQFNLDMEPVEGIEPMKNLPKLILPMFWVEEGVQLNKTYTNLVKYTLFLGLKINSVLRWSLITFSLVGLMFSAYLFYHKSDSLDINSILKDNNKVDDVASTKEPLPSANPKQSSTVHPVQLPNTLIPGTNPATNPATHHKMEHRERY

For the assay, the target named is Drosophila melanogaster sensory neuron membrane protein 1 (DmelSNMP1) (D. melanogaster) (UniProt Q9VDD3). Briefly: two-hybrid.

These are yes or no findings as the source states them, for the method shown. Some results given as binding are weak or reduced against the parent protein; the word gives no strength.

B1: Drosophila melanogaster odorant receptor 22a (DmelOR22a) (receptor, UniProt P81909 1-397)
chain: MLSKFFPHIKEKPLSERVKSRDAFIYLDRVMWSFGWTEPENKRWILPYKLWLAFVNIVMLILLPISISIEYLHRFKTFSAGEFLSSLEIGVNMYGSSFKCAFTLIGFKKRQEAKVLLDQLDKRCLSDKERSTVHRYVAMGNFFDILYHIFYSTFVVMNFPYFLLERRHAWRMYFPYIDSDEQFYISSIAECFLMTEAIYMDLCTDVCPLISMLMARCHISLLKQRLRNLRSKPGRTEDEYLEELTECIRDHRLLLDYVDALRPVFSGTIFVQFLLIGTVLGLSMINLMFFSTFWTGVATCLFMFDVSMETFPFCYLCNMIIDDCQEMSNCLFQSDWTSADRRYKSTLVYFLHNLQQPITLTAGGVFPISMQTNLAMVKLAFSVVTVIKQFNLAERFQ
For the molecule B1, the binding result is “binds weakly”.

B2: Drosophila melanogaster odorant receptor 67d (DmelOR67d) (receptor, UniProt Q9VT92 1-391)
chain: MLKMAKVEPVERYCKVIRMIRFCVGFCGNDVADPNFRMWWLTYAVMAAIAFFFACTGYTIYVGVVINGDLTIILQALAMVGSAVQGLTKLLVTANNASHMREVQNTYEDIYREYGSKGDEYAKCLEKRIRITWTLLIGFMLVYIILLGLVITFPIFYLLILHQKVLVMQFLIPFLDHTTDGGHLILTAAHVILITFGGFGNYGGDMYLFLFVTHVPLIKDIFCVKLTEFNELVMKRNDFPKVRAMLCDLLVWHQLYTRMLQTTKKIYSIVLFVQLSTTCVGLLCTISCIFMKAWPAAPLYLLYAAITLYTFCGLGTLVENSNEDFLSVIYTNCLWYELPVKEEKLIIMMLAKAQNEVVLTAADMAPLSMNTALQLTKGIYSFSMMLMNYLG
Take B2: the binding entry is reported as “binds weakly”.
